Source: PMC4432228, “Tight regulation of the unfolded protein sensor Ire1 by its intramolecularly antagonizing subdomain” (Journal of Cell Science, 2015)
No constants are given. Whether binding was seen depends on the method and setting. Some results given as binding are weak or reduced against the parent protein; the word gives no strength. Sequences can lack the tags named with a protein.

Columns and labels:
Test in all cases: two-hybrid; Matchmaker Gold; bait in pGBKT7 (Y2HGold) and prey in pGADT7 mated; tenfold dilutions spotted on -Leu/-Trp plates with 125 ng/ml aureobasidin A, 2-4 days at 30°C (Fig. 6A,B)
[1] = molecular target: T1, GGGSS, 12 tandem repeat, two-hybrid bait
T1 sequence: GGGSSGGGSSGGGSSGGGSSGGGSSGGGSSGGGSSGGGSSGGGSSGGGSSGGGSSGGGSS

[2] = molecular target: T2, N-terminal unconserved region (NUCR) of human PERK, two-hybrid bait (human) (UniProt Q9NZJ5)
T2 sequence: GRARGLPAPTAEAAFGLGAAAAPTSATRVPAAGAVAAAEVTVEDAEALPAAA

[3] = molecular target: T3, N-terminal unconserved region (NUCR) of mouse PERK, two-hybrid bait (mouse) (UniProt Q9Z2B5)
T3 sequence: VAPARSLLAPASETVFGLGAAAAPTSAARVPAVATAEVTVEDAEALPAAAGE

[4] = molecular target: T4, Top2 intrinsically disordered region (IDR), two tandem repeat, two-hybrid bait (UniProt P06786)
T4 sequence: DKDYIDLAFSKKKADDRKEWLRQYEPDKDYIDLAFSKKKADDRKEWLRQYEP

[5] = molecular target: T5, San1 intrinsically disordered region (IDR), two-hybrid bait (UniProt P22470)
T5 sequence: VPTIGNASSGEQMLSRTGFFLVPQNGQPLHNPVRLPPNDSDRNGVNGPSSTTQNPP

binding [1]: binds | binding [2]: binds | binding [3]: binds | binding [4]: binds | binding [5]: binds
B1: core stress-sensing region (CSSR) of yeast Ire1, two-hybrid fusion (domain or fragment, UniProt P32361 112-454)
chain: RSLNELSLSDILIAADVEGGLHAVDRRNGHIIWSIEPENFQPLIEIQEPSRLETYETLIIEPFGDGNIYYFNAHQGLQKLPLSIRQLVSTSPLHLKTNIVVNDSGKIVEDEKVYTGSMRTIMYTINMLNGEIISAFGPGSKNGYFGSQSVDCSPEEKIKLQECENMIVIGKTIFELGIHSYDGASYNVTYSTWQQNVLDVPLALQNTFSKDGMCIAPFRDKSLLASDLDFRIARWVSPTFPGIIVGLFDVFNDLRTNENILVPHPFNPGDHESISSNKVYLDQTSNLSWFALSSQNFPSLVESAPISRYASSDRWRVSSIFEDETLFKNAIMGVHQIYNNEYD
